Assay results: patent publication US20230040928A1 (INSERM INSTITUT NATIONAL DE LA SANTE ET DE LA RECHERCHE …, published 2023)
Results are given in words; binding and its absence hold for the method and conditions named. Some entries that bind do so weakly or less than the wild type. For part of these data: Sequences can lack the tags named with a protein.

Legend:
mouse HER4-Fc (mouse) = target: T1, mouse HER4-Fc (mouse) (UniProt Q61527); experiment: ELISA, mouse HER4-Fc coated, IgG in solution
T1 sequence (looked up): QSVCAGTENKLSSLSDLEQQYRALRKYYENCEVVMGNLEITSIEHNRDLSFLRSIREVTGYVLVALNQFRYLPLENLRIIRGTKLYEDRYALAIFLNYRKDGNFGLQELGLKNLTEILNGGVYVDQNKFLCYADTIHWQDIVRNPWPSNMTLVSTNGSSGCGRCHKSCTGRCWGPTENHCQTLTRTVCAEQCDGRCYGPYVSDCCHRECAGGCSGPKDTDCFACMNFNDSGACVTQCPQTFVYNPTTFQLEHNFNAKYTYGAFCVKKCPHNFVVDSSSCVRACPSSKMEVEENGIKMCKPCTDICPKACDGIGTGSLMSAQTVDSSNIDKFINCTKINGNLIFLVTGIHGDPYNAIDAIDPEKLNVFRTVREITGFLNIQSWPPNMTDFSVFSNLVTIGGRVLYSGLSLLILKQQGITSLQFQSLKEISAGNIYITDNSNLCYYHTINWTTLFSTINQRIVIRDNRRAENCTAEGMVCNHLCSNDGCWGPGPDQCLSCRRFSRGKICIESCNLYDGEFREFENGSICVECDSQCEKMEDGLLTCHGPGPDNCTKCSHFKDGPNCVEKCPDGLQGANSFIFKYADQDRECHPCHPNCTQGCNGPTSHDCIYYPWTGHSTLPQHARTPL

[1] = target: HER4 on C33A cervix carcinoma cells (human) (UniProt Q15303); experiment: flow cytometry, 15 µg/ml antibody on C33A cells
[2] = target: HER4 on C33A cervix carcinoma cells (human) (UniProt Q15303); experiment: flow cytometry on C-33A cells in presence of NRG1

Measured: binding

B1: C6 mAb (antibody, V domains shown)
VH: EVQLVESGGSLVKPGGSLRLSCAASGFTFSNYYMNWVRQAPGKGLEWISSISGSSRYIDYADFVKGRFTISRDNATNSLYLQMNSLRAEDTAVYYCVRSSSDYFGGGMDVWGRGTLVTVSS
VL: QSVLTQPASVSGSPGQSITISCAGTSSDVGGSYYVSWYQQHPGKAPKLMIYYDSYRPSGVSNRFSGSKSGNTASLTISGLQAEDEADYYCSSSTYNSTRVFGGGTKLAVLG
notes: also called antibody C6; Ab C6
binds: all assays above

B2: F4 mAb (antibody, V domains shown)
VH: EVQLVESGGSLVKPGGSLRLSCAASGFTFSNNDMNWVRQAPGKGLEWISSISGSSRYINYADFVKGRFTISRDNATNSLYLQMNSLRAEDTAVYYCVRSSDDYFGGGMDVWGRGTLVTVSS
VL: QSVLTQPASVSGSPGQSITISCAGTSSDVGGYSGVSWYQQHPGKAPKLMIYNDSYRPSGVSNRFSGSKSGNTASLTISGLQAEDEADYYCSSYTNNSTRVFGGGTKLAVLG
notes: also called antibody F4
binds: all assays above

B3: D5 mAb (antibody, V domains shown)
VH: EVQLVESGGSLVKPGGSLRLSCAASGFTFSNYYMNWVRQAPGKGLEWISSIDGSSRYIDYADFVKGRFTISRDNATNSLYLQMNSLRAEDTAVYYCVRSSSDYFGGGMDVWGRGTLVTVSS
VL: QSVLTQPASVSGSPGQSITISCAGTSSDVGGSSYVSWYQQHPGKAPKLMIYYDSYRPSGVSNRFSGSKSGNTASLTISGLQAEDEADYYCSSNTYYSTRVFGGGTKLAVLG
notes: also called antibody D5; anti-HER4 antibody D5
binds: all assays above

B4: H2 mAb (antibody, V domains shown)
VH: EVQLVESGGSLVKPGGSLRLSCAASGFTFSNNDMNWVRQAPGKGLEWISDINGSSRYIYYADFVKGRFTISRDNATNSLYLQMNSLRAEDTAVYYCVRSSDDYFGGGMDVWGRGTLVTVSS
VL: QSVLTQPASVSGSPGQSITISCAGTSSDVGGYYSVSWYQQHPGKAPKLMIYNDSYRPSGVSNRFSGSKSGNTASLTISGLQAEDEADYYCSSSTYYSTRVFGGGTKLAVLG
notes: also called antibody H2
binds: all assays above
